Data as given in patent publication US9877962B2, “Piperazinyl derivatives for the treatment of cancer” (priority 2011, dated 2018).
For some of these results: At least one read-out could not be matched to a standard name with certainty. At least one compound was matched to its structure with a doubt left.

Legend:
MCF-7 = test: Cytotoxicity test (ViaLight Plus cell proliferation) on MCF-7; format: cell-based, human; details: 72 hours' incubation, cell viability vs 0.5% DMSO control
From the text: (§1) The effects of the compounds of the invention on the proliferation of cancer cells were studied on different human cancer cell lines of different tissue origin (MCF-7: breast cancer, MCF-7/adr adriamycin-resistant breast cancer, HL-60: acute promyelocytic leukaemia, HL-60/R10: doxorubicin-resistant acute promyelocytic leukaemia, HT29: colon adenocarcinoma, Mia Paca2: pancreatic tumour, Panc-1: pancreatic exocrine tumour, SK-OV-3: cisplatin- and adriamycin resistant ovarian cancer). The cancer cells used for this study were incubated at 37° C. in the presence of one of the compounds of the invention added to the culture medium at different concentrations.
(§2) The cancer cell lines were obtained from ATCC (American Type Culture Collection) for MCF-7, from Hôpital de la Pitié Salpetrière for MCF-7/adr and from Oncodesign (Dijon, France) for HL-60, HL-60/R10, HT29, MiaPaCa2, Panc-1 and SK-OV-3. They were cultured in RPMI 1640 medium containing 2 mM L-Glutamine supplemented with 10% foetal calf serum (Lonza; Verviers, Belgium). All the cell lines were held in culture at 37° C. in a humid atmosphere containing 5% CO2. Cell proliferation was assessed using the ViaLight® Plus Assay Kit (Lonza; Verviers, Belgium) following the manufacturer's instructions. The cells were seeded in 96-well culture plates compatible with luminescence read-off (white plates with transparent bottom) in a proportion of 5 000 to 10 000 cells per well in 100 μl of culture medium. After a pre-incubation time of 24 hours at 37° C., the compounds of the invention dissolved in dimethylsulfoxide (DMSO) were individually added to each well in a proportion of 0.5 μl per well. After 72 hours' incubation at 37° C. in a humid atmosphere containing 5% CO2, 50 μl of lysis buffer were added to each well and 15 minutes later 100 μl of ATP measuring agent were added. The plates were read under a luminometer to evaluate cell viability. The data obtained was processed by computer to obtain the EC50 value i.e. the concentration value of each of the compounds which induces 50% cell viability compared with a control value (0.5% DMSO alone).

HL-60 = test: Cytotoxicity test (ViaLight Plus cell proliferation) on HL-60; format: cell-based, human; details: 72 hours' incubation, cell viability vs 0.5% DMSO control
From the text: as §1, §2

Structure (SMILES) | EC50 (MCF-7) | EC50 (HL-60)
CC[C@@H]1CN(C(=O)C(c2ccc(F)cc2)N(C(=O)CCl)c2ccc(Oc3ccccc3)cc2C)CCN1C(=O)OC(C)(C)C (single isomer, unassigned; dia1) [I-16 dia1] | 2500 nM | –
C[C@@H]1CN(C(=O)C(c2cccs2)N(C(=O)CCl)c2ccc(Oc3ccccc3)cc2)CCN1.Cl (stereo partly shown) [Example I-59] | – | 966 nM
CC[C@@H]1CN(C(=O)C(c2ccc(F)cc2)N(C(=O)CCl)c2ccc(Oc3ccccc3)cc2C)CCN1C(=O)OC(C)(C)C (single isomer, unassigned; dia2) [I-16 dia2] | 2500 nM | –
CC[C@@H]1CN(C(=O)C(c2ccc(F)cc2)N(C(=O)CCl)c2ccc(Oc3ccccc3)cc2)CCN1C(=O)OC(C)(C)C (single isomer, unassigned; dia2) [I-20 dia2] | 2500 nM | –
Cc1cc(Oc2ccccc2)ccc1N(C(=O)CCl)C(C(=O)N1CCN(C(=O)OC(C)(C)C)[C@H](C)C1)c1cccs1 (single isomer, unassigned; dia1) [I-40 dia1] | 2500 nM | –
Cc1cc(Oc2ccccc2)ccc1N(C(=O)CCl)C(C(=O)N1CCN(C(=O)OC(C)(C)C)[C@H](C)C1)c1cccs1 (single isomer, unassigned; dia2) [I-40 dia2] | 2500 nM | 2500 nM
CC[C@H]1CN(C(=O)C(c2ccc(F)cc2)N(C(=O)CCl)c2ccc(Oc3ccccc3)cc2C)CCN1 (single isomer, unassigned; dia1) [I-17 dia1] | 2500 nM | –
CC[C@H]1CN(C(=O)C(c2ccc(F)cc2)N(C(=O)CCl)c2ccc(Oc3ccccc3)cc2)CCN1C(=O)OC(C)(C)C (single isomer, unassigned; dia2) [I-19 dia2] | 2500 nM | –
CC[C@H]1CN(C(=O)C(c2ccc(F)cc2)N(C(=O)CCl)c2ccc(Oc3ccccc3)cc2)CCN1C(=O)OC(C)(C)C (single isomer, unassigned; dia1) [I-19 dia1] | 2500 nM | –
Cc1cc(Oc2ccccc2)ccc1N(C(=O)CCl)C(C(=O)N1CCN2CCC[C@H]2C1)c1cccs1 (stereo partly shown) [Example I-33] | 2500 nM | 2500 nM
Cc1cc(Oc2ccccc2)ccc1N(C(=O)CCl)C(C(=O)N1CCN[C@@H](C(C)C)C1)c1cccs1 (single isomer, unassigned; dia1) [I-46 dia1] | 2500 nM | 2500 nM
Cc1cc(Cl)ccc1N(C(=O)CCl)C(C(=O)N1CCN[C@@H](C(C)C)C1)c1cccs1 (single isomer, unassigned; dia1) [I-52 dia1] | – | 2500 nM
CC[C@@H]1CN(C(=O)C(c2ccc(F)cc2)N(C(=O)CCl)c2ccc(Oc3ccccc3)cc2C)CCN1 (single isomer, unassigned; dia1) [I-18 dia1] | 2500 nM | –
